Measurements taken from patent US20080009546A1 (Chevron U.S.A. Inc., priority 2005, published 2008).
pKi: −log10 of the molar value. Some of these results come from one statement about several compounds together.

Target: NMDA receptor
Experiment: [3H]MK-801 binding assay, NMDA receptors in guinea pig brain membranes
Settings: [3H]MK-801 (1 nM), guinea pig brain membrane preparation; read-out: Ki (binding affinity)
Experimental: Hartley guinea pigs were sacrificed, and their brains were quickly removed and weighed. The brains then were homogenized in 50 mM Tris HCl buffer, pH 7.7, using a Polytron homogenizer. The homogenate was centrifuged at 40,000×g for 15 min, rehomogenized, and centrifuged again. The final pellet was resuspended in Tris-HCl, pH 7.7, at a final concentration of 6.67 mg original wet weight of tissue/ml. […] The samples were then filtered through glass fiber filters on a Tomtec cell harvester. The filters were washed 3 times with 3 ml of cold buffer. Filters were dried overnight and counted next day on a Wallac Betaplate Reader.
The binding experiments were conducted as follows. […] For each compound, graphs were prepared containing individual competition curves obtained for that compound. IC50 values and Hill coefficients were calculated using the program Prism. Ki values were calculated using the Chang Prusoff transformation: Ki=IC50/(1+L/Kd)
where L is radioligand concentration and Kd is the binding affinity of the radioligand, as determined previously by saturation analysis. […] In each experiment, one standard compound was simultaneously run on each 96 well plate.

SMILES | pKi
CC12CC3CC4C1CC1(N)CC2C(C3)C4(C)C1 [MDT-23, 4-amino-1,6-dimethyl-diamantane] | ≥ 5.30
CC12CC3CC4C1CC1CC2C(N)(C3)C4(C)C1 (centres unmarked) [MDT-43, 1,6-dimethyl-2-aminodiamantane] | ≥ 5.30
CC12CC3C4CC5(C)CC3C(C1)C(CN)(C5)C4C2 [MDT-63] | ≥ 5.30
CC12CC3C4CC5(C)CC3C(C1)C(N)(C5)C4C2 [MDT-51, 4,9-dimethyl-1-aminodiamantane] | ≥ 5.30
CC(N)C12CC3CC4C5CC(CC41)CC2C5C3 (centres unmarked) [MDT-57] | ≥ 5.30
